Results taken from the supplement of paper PMC4604168 (melanoma cell lines).
Some of the results follow. Many values rest on one well or one pass, so single values are uncertain.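 Imaging used 1,536-well plates; nuclei positive for cleaved PARP by antibody were divided by total DNA-stained nuclei to yield the apoptosis fraction. Doses for screening kept most cells viable, and cell lines differ markedly in resting and induced cleaved-PARP levels.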

The compounds below were run on WM1745 (assay: cleaved PARP positive nuclei fraction relative to DMSO control; melanoma cells; higher = more apoptosis). Details: library dose: low library concentration; 72 h.

| SMILES | cleaved PARP positive nuclei fraction [%] |
| --- | --- |
| C[As](C)SC[C@H](NC(=O)CC[C@H](N)C(=O)O)C(=O)NCC(=O)O [Darinaparsin] + COCC[n+]1c2c(n(Cc3cnccn3)c1C)C(=O)c1ccccc1C2=O [YM155] (first compound 0.4 µM, partner dose 0.0004 µM) | 98.3 |
| COc1cc2c(Oc3ccc4[nH]c(C)cc4c3F)ncnc2cc1OCCCN1CCCC1 [cediranib] + Cc1cc(SCc2sc(-c3ccc(C(F)(F)F)c(F)c3)nc2C)ccc1OCC(=O)O [GW0742] (first compound 0.4 µM, partner dose 2 µM) | 236 |
| C[C@]12O[C@H](C[C@]1(O)CO)n1c3ccccc3c3c4c(c5c6ccccc6n2c5c31)CNC4=O [Lestaurtinib] + Cn1c(=O)n(-c2ccc(C(C)(C)C#N)cc2)c2c3cc(-c4cnc5ccccc5c4)ccc3ncc21 [NVP-BEZ235] (first compound 0.004 µM, partner dose 0.004 µM) | 105 |
| CN(C)S(=O)(=O)c1ccc2c(c1)/C(=C/c1cc3c([nH]1)CCCC3)C(=O)N2 + O=C(Oc1ccc([N+](=O)[O-])cc1)N1CCC(C(O)(c2ccc3c(c2)OCO3)c2ccc3c(c2)OCO3)CC1 [JZL184] (first compound 0.4 µM, partner dose 1 µM) | 104 |
| Cc1cc(Nc2cc(N3CCN(C)CC3)nc(/C=C/c3ccccc3)n2)n[nH]1 + Cc1cc(SCc2sc(-c3ccc(C(F)(F)F)c(F)c3)nc2C)ccc1OCC(=O)O [GW0742] (first compound 0.04 µM, partner dose 2 µM) | 92.4 |
